Patent US20230355814A1
No constants are given. Whether binding was seen depends on the method and setting. Some binding calls cover weakened binding; strength is not graded here.

B1: artificially bound protein Seq1 (designed binder)
chain: AEAKYNDEMRITYWEIALFAPLENEHKRAYIRRLYDDPSRADELEEKAELEAKAMAQG
B2: artificially bound protein Seq2 (designed binder)
chain: AEAKYNEEMRITYWAIALFAPLENEHKRAYIRRLYDDPSRADELEEKAELEAQAMAQG
B3: artificially bound protein Seq5 (designed binder)
chain: AEAKYNEEMRITYWAIALFQALENEHKRAYIRRLYDDPSRADELEEKAELEAQAMAQG
B4: artificially bound protein Seq3 (designed binder)
chain: AEAKYNDEMRITYWHIALFAPLENEHKRAYIRRLYDDPSRADELEEKARLEAKAMAQG
B5: artificially bound protein Seq4 (designed binder)
chain: AEAKYNDEMRITYWEIALFQALENEHKRAYIRRLYDDPSRADELEEKAELEAKAMAQG

Each binder was assayed against HER2-biotin (human) (UniProt P04626) (assay: yeast surface display, flow cytometry with HER2-biotin / Streptavidin-Alexa Fluor 488).

binding, binds:
B1
B2
B3
B4
B5
